Taken from: PubChem BioAssay AID504795 (Drosophila RNAi Screening Center, 2011)
Only reagents picked out of a larger screen are listed. 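Every listed dsRNA shows some phenotype; how reagents were selected for listing is not stated.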 Names joined by + are all predicted targets of the reagent.

Screen: 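Knock-downs causing abnormal branching, bundling, swelling or growth of cultured neurons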 (primary screen)
Cells: primary Drosophila neurons and glia
Reagents: long dsRNA against Drosophila genes, 250 ng dsRNA per well
Time to read-out: one week
Measurement: 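GFP-labelled neurons and glia imaged live by automated microscope one week after 250 ng dsRNA per well; morphology scored by eye as descriptive phenotype terms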

predicted target | amplicon | phenotype seen, replicate 1 | phenotype seen, replicate 2
CG32984 | DRSC21602 | too many neurite branches | –
Hibch (3-hydroxyisobutyryl-CoA hydrolase) | DRSC15705 | too many neurite branches | –
BomS3 (Bomanin Short 3) | DRSC21458 | abnormal cell clusters | –
Ldaf1 (Lipid droplet assembly factor 1) | DRSC17963 | too many neurite branches | –
CG3594 | DRSC04393 | abnormal cell clusters | –
CG32488 | DRSC21537 | axon bundles split apart | –
CG31211 | DRSC21478 | too many neurite branches | –
Hsepi (Heparan sulfate C5-epimerase) | DRSC04986 | reduced axon outgrowth | –
CG13056 | DRSC09937 | too many neurite branches | –
Dys (Dystrophin) | DRSC15260 | sheet-like cell extensions | –
CG9674 | DRSC11089 | reduced axon outgrowth | –
CG12589 | DRSC12215 | axon bundles split apart | fewer cells
twin | DRSC21363 | reduced axon outgrowth | –
lncRNA:CR42862 + CG33229 | DRSC08497 | abnormal cell clusters | –
CG8475 | DRSC03091 | sheet-like cell extensions | –
Muc26B (Mucin 26B) | DRSC02322 | cell fragments present | –
Blm + CG14721 | DRSC14943 | fewer cells | –
BEAF-32 (Boundary element-associated factor of 32kD) | DRSC05927 | too many neurite branches | –
CCHa2-R (CCHamide-2 receptor) | DRSC04825 | too many neurite branches | –
Gr64f (Gustatory receptor 64f) | DRSC08447 | axon bundles split apart | –
CG17349 | DRSC02610 | too many neurite branches | –
sun (stunted) | DRSC20140 | fewer cells | –
CG4653 | DRSC19909 | reduced axon outgrowth | –
RpS7 (Ribosomal protein S7) | DRSC15394 | cell fragments present | –
CG2291 | DRSC06836 | axon bundles split apart | –
Rab23 | DRSC12305 | sheet-like cell extensions | –
CG34054 | DRSC05277 | abnormal cell clusters | –
eIF3b (eukaryotic translation initiation factor 3 subunit b) | DRSC06900 | reduced axon outgrowth | –
CG4520 | DRSC15590 | sheet-like cell extensions | –
MED25 (Mediator complex subunit 25) | DRSC14483 | too many neurite branches | –
CG4168 | DRSC01447 | reduced axon outgrowth | –
CG4168 | DRSC21319 | axon bundles split apart | –
Lsp2 (Larval serum protein 2) | DRSC11216 | fewer cells | –
ssp5 (short spindle 5) | DRSC14955 | axon bundles split apart | –
san (separation anxiety) | DRSC07695 | reduced axon outgrowth | –
smog | DRSC00334 | abnormal cell clusters | –
CG13488 | DRSC04133 | too many neurite branches | –
CG17364 | DRSC10270 | reduced axon outgrowth | axon bundles split apart
GstT2 (Glutathione S transferase T2) | DRSC06244 | too many neurite branches | –
nab | DRSC08456 | too many neurite branches | –
CG8870 | DRSC16452 | abnormal cell clusters | –
Muc68Ca (Mucin 68Ca) | DRSC10313 | weaker green signal | –
CG15048 (retired record) | DRSC19624 | axon bundles split apart | –
eIF4B (eukaryotic translation initiation factor 4B) | DRSC20983 | too many neurite branches | –

Already shown: 4 of the entries above.
predicted target | amplicon | phenotype seen, replicate 1 | phenotype seen, replicate 2
GstT2 (Glutathione S transferase T2) | DRSC06244 | too many neurite branches | –
nab | DRSC08456 | too many neurite branches | –
CG8870 | DRSC16452 | abnormal cell clusters | –
Muc68Ca (Mucin 68Ca) | DRSC10313 | weaker green signal | –
